{"source": "PubChem BioAssay AID1259308 (NCATS, 2017)", "aim": "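Knock-downs that increase output of a recombinant reporter protein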 (primary screen)", "cell system": "human HEK293 embryonic kidney cells stably expressing firefly luciferase (HEK-CMV-Luc2-Hygro)", "knock-down reagent": "single siRNA against human genes, 0.8 pmol siRNA per well", "duration": "72 h", "measurement": "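Luciferase light (ONE-Glo) measured on one replicate plate set and viability (CellTiter-Glo) on the other, scaled to a negative control siRNA, with robust z-scores and luciferase per cell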", "direction": "total luciferase, z-score and total luciferase, % of control: higher = more reporter protein produced", "hit rule": "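Active when the median/MAD z-score for overall luciferase is greater than 3; a gene was taken forward for validation with new siRNAs if at least two of its three siRNAs passed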", "calls": "active = raised luciferase; inactive = no rise", "note": "Here is a random part of about 59,000 reagents. About 1,510 of them (2.6%) were called active. 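Calls use total luciferase alone and ignore viability, so some active siRNAs may act by altering cell number.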 The numbers tell different reagents against one gene apart. Further read-outs or replicates are left out here. Reagent sequences are not shown."}
{"target": "PTGDR2", "reagent": 1, "total luciferase, z-score": -3.11, "total luciferase, % of control": 19.9, "Call": "inactive"}
{"target": "PTGDR2", "reagent": 2, "total luciferase, z-score": 0.973, "total luciferase, % of control": 101, "Call": "inactive"}
{"target": "PTGDR2", "reagent": 3, "total luciferase, z-score": 0.0369, "total luciferase, % of control": 82.6, "Call": "inactive"}
{"target": "KALRN", "reagent": 1, "total luciferase, z-score": 0.441, "total luciferase, % of control": 90.7, "Call": "inactive"}
{"target": "KALRN", "reagent": 2, "total luciferase, z-score": -0.693, "total luciferase, % of control": 68.1, "Call": "inactive"}
{"target": "KALRN", "reagent": 3, "total luciferase, z-score": -0.566, "total luciferase, % of control": 70.6, "Call": "inactive"}
{"target": "STYXL1", "reagent": 1, "total luciferase, z-score": 2.22, "total luciferase, % of control": 126, "Call": "inactive"}
{"target": "STYXL1", "reagent": 2, "total luciferase, z-score": -0.658, "total luciferase, % of control": 68.8, "Call": "inactive"}
{"target": "STYXL1", "reagent": 3, "total luciferase, z-score": -0.405, "total luciferase, % of control": 73.8, "Call": "inactive"}
{"target": "TVP23B", "reagent": 1, "total luciferase, z-score": -0.879, "total luciferase, % of control": 64.4, "Call": "inactive"}
{"target": "TVP23B", "reagent": 2, "total luciferase, z-score": -0.492, "total luciferase, % of control": 72.1, "Call": "inactive"}
{"target": "TVP23B", "reagent": 3, "total luciferase, z-score": 2.51, "total luciferase, % of control": 132, "Call": "inactive"}
{"target": "WIPF2", "reagent": 1, "total luciferase, z-score": -0.378, "total luciferase, % of control": 74.4, "Call": "inactive"}
{"target": "WIPF2", "reagent": 2, "total luciferase, z-score": -0.742, "total luciferase, % of control": 67.1, "Call": "inactive"}
{"target": "WIPF2", "reagent": 3, "total luciferase, z-score": 0.192, "total luciferase, % of control": 85.7, "Call": "inactive"}
{"target": "CLDND2", "reagent": 1, "total luciferase, z-score": 0.806, "total luciferase, % of control": 97.9, "Call": "inactive"}
{"target": "CLDND2", "reagent": 2, "total luciferase, z-score": -2.54, "total luciferase, % of control": 31.4, "Call": "inactive"}
{"target": "CLDND2", "reagent": 3, "total luciferase, z-score": 2.26, "total luciferase, % of control": 127, "Call": "inactive"}
{"target": "ARPC4", "reagent": 1, "total luciferase, z-score": 0.863, "total luciferase, % of control": 99.1, "Call": "inactive"}
{"target": "ARPC4", "reagent": 2, "total luciferase, z-score": 3.42, "total luciferase, % of control": 150, "Call": "active"}
{"target": "ARPC4", "reagent": 3, "total luciferase, z-score": -0.43, "total luciferase, % of control": 73.3, "Call": "inactive"}
{"target": "LIPE", "reagent": 1, "total luciferase, z-score": -1.04, "total luciferase, % of control": 61.1, "Call": "inactive"}
{"target": "LIPE", "reagent": 2, "total luciferase, z-score": 1.32, "total luciferase, % of control": 108, "Call": "inactive"}
{"target": "LIPE", "reagent": 3, "total luciferase, z-score": 3.17, "total luciferase, % of control": 145, "Call": "active"}
{"target": "RHBDF1", "reagent": 1, "total luciferase, z-score": -0.337, "total luciferase, % of control": 75.2, "Call": "inactive"}
{"target": "RHBDF1", "reagent": 2, "total luciferase, z-score": -0.58, "total luciferase, % of control": 70.4, "Call": "inactive"}
{"target": "RHBDF1", "reagent": 3, "total luciferase, z-score": 1.05, "total luciferase, % of control": 103, "Call": "inactive"}
{"target": "DNAJA1P4", "reagent": 1, "total luciferase, z-score": -0.528, "total luciferase, % of control": 71.4, "Call": "inactive"}
{"target": "DNAJA1P4", "reagent": 2, "total luciferase, z-score": -0.0608, "total luciferase, % of control": 80.7, "Call": "inactive"}
{"target": "DNAJA1P4", "reagent": 3, "total luciferase, z-score": -0.404, "total luciferase, % of control": 73.8, "Call": "inactive"}
{"target": "NIBAN2", "reagent": 1, "total luciferase, z-score": -0.826, "total luciferase, % of control": 65.4, "Call": "inactive"}
{"target": "NIBAN2", "reagent": 2, "total luciferase, z-score": 3.15, "total luciferase, % of control": 145, "Call": "active"}
{"target": "NIBAN2", "reagent": 3, "total luciferase, z-score": 0.0567, "total luciferase, % of control": 83, "Call": "inactive"}
